Results from PMC10122208.
These are yes or no findings as the source states them, for the method shown. Binding seen in cells or lysates may run through a third protein. Some results given as binding are weak or reduced against the parent protein; the word gives no strength.

Protein sequences, listed by entry. Tags and fused reporters are not part of them.
UniProt Q9ULZ3: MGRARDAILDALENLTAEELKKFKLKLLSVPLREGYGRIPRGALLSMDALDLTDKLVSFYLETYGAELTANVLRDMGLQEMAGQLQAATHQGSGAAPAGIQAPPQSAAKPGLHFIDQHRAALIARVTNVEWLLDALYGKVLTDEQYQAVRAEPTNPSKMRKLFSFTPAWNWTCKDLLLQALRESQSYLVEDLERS

Molecular target: apoptosis-associated speck-like protein containing CARD (ASC) (human (endogenous in HBECs)) (UniProt Q9ULZ3)
Assay: co-IP; lysates (1 uM DTT + 10% Triton X100, protease inhibitor) of HBECs from patients with asthma, RV-A16 infection (RIG-I blot: in the presence of HDM); 100 ug pooled protein pre-cleared with Protein A beads, 10 ug anti-ASC antibodies overnight at 4 C, Protein A beads 2 h at room temperature; Western blot for RIG-I or MDA5

B1: retinoic acid-inducible gene I (RIG-I) (protein, UniProt O95786 1-925)
chain: MTTEQRRSLQAFQDYIRKTLDPTYILSYMAPWFREEEVQYIQAEKNNKGPMEAATLFLKFLLELQEEGWFRGFLDALDHAGYSGLYEAIESWDFKKIEKLEEYRLLLKRLQPEFKTRIIPTDIISDLSECLINQECEEILQICSTKGMMAGAEKLVECLLRSDKENWPKTLKLALEKERNKFSELWIVEKGIKDVETEDLEDKMETSDIQIFYQEDPECQNLSENSCPPSEVSDTNLYSPFKPRNYQLELALPAMKGKNTIICAPTGCGKTFVSLLICEHHLKKFPQGQKGKVVFFANQIPVYEQQKSVFSKYFERHGYRVTGISGATAENVPVEQIVENNDIIILTPQILVNNLKKGTIPSLSIFTLMIFDECHNTSKQHPYNMIMFNYLDQKLGGSSGPLPQVIGLTASVGVGDAKNTDEALDYICKLCASLDASVIATVKHNLEELEQVVYKPQKFFRKVESRISDKFKYIIAQLMRDTESLAKRICKDLENLSQIQNREFGTQKYEQWIVTVQKACMVFQMPDKDEESRICKALFLYTSHLRKYNDALIISEHARMKDALDYLKDFFSNVRAAGFDEIEQDLTQRFEEKLQELESVSRDPSNENPKLEDLCFILQEEYHLNPETITILFVKTRALVDALKNWIEGNPKLSFLKPGILTGRGKTNQNTGMTLPAQKCILDAFKASGDHNILIATSVADEGIDIAQCNLVILYEYVGNVIKMIQTRGRGRARGSKCFLLTSNAGVIEKEQINMYKEKMMNDSILRLQTWDEAVFREKILHIQTHEKFIRDSQEKPKPVPDKENKKLLCRKCKALACYTADVRVIEECHYTVLGDAFKECFVSRPHPKPKQFSSFEKRAKIFCARQNCSHDWGIHVKYKTFEIPVIKIESFVVEDIATGVQTLYSKWKDFHFEKIPFDPAEMSK
binding: binds
